No constants are given. Whether binding was seen depends on the method and setting. Some results given as binding are weak or reduced against the parent protein; the word gives no strength.
Biological target: cynomolgus IL4Rα/Fc HIS6 (HEK expressed) (cynomolgus monkey)
Assay: DELFIA epitope competition, receptor as competitor of biotinylated human IL-4Rα HIS FLAG

B1: Antibody 37GL IgG (antibody, V domains shown)
VH: QVQLVQSGAEVKKPGASVKVSCKASGYAFTSYYMHWVRQAPGQGLEWMGIINPRGGSTSYAQKFQGRVTMTRDTSTSTVYMELSSLRSEDTAVYYCARGKYWMYDWGKGTLVTVSS
VL: QSVLTQPPSVSAAPGQKVTISCSGGGSSIGNSYVSWYQQLPGTAPKLLIYDNNKRPSGIPDRFSGSKSGTSATLGITGLQTGDEADYYCGTWDTSPVWEWPFGTGTKLTVL
In the case of B1, the binding is reported as “binds”.

From US20180057596A1
